Test results published in PubChem BioAssay AID624297 (National Center for Advancing Translational Sciences (NCATS), 2012).
Several values for one entry are separate records, joined by “and”; a condition that tells them apart may be missing. Identical values can stand only once. The campaign covered roughly 340,000 compounds. About 6,200 (1.8%) were called active. Inconclusive means that the source gave no clear call. Such entries were picked first, then a sample of the others. Calls follow the shape of the dose curve; as a rule, active = well fitted activation curve with a large enough effect; inconclusive = small, poorly fitted or top-dose-only effect; inactive = no such curve, though single readings can be large or run the other way. Potencies beside an inconclusive call are fits to weak or partial responses and may not hold up.
Potency is read from the fitted curve at half-maximal effect.

Experiment: A quantitative high throughput screen for small molecules that induce DNA re-replication in SW480 colon adenocarcinoma cells. Also: nearly all actives have a fitted effect of over 55% in size. As to re-replication activation: % of control where 0% means no effect.
Details: Hoechst DNA content imaging, 48 h; re-replication activation: at 46.1 µM (top of the series)
Procedure, shortened: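 Treated cells incubate 48 hr (37 C, 5% CO2), are stained 40 min with Hoechst, and nuclear fluorescence is enumerated; a rise in nuclei with high DNA signal marks re-replication.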
For `CCOC(=O)[C@]12Cc3ccsc3[C@H]1N(Cc1ccccc1)C(=O)c1ccccc12`, the Potency was inconclusive: 29.1 µM [activator, single point].
In the case of `COc1ccc(CC(=O)N2CCN(C)CC2)cc1`, the “re-replication activation” value is reported as inactive: 0.259%.
With `COC(=O)C1=C(c2ccc(S(C)(=O)=O)cc2)C[C@@H]2CC[C@H]1N2C(=O)NCc1ccc(C(F)(F)F)cc1` the Potency was inconclusive: 25.9 µM [activator, partial curve, poor fit].
With `N#CC1(N2CCCCC2)CCCCC1` the “re-replication activation” value was inactive: -1.72%.
In the case of `O=C(NCCc1ccccc1)[C@@H]1CC=C[C@@H]2CCN(Cc3ccc(Cl)c(Cl)c3)C(=O)[C@@H]21`, the Potency is reported as inconclusive: 4.61 µM [activator, single point].
For `COC(=O)C1=C(c2ccccc2OCc2ccccc2)C[C@@H]2CC[C@H]1N2C(=O)NCCOc1ccc(OC)cc1`, the Potency was inconclusive: 5.17 µM [activator, partial curve, poor fit].
For `S=c1[nH]nc(-c2ccccc2)n1CC1CCCO1` (centres undefined), the Potency was inconclusive: 32.6 µM [activator, single point].
For `CC1CC(C)(O)CC(C(O)CC2CC(=O)NC(=O)C2)C1=O` (centres undefined), the Potency was inconclusive: 0.411 µM [activator, full curve, poor fit].
With `Cc1cccc([N+](=O)[O-])c1` the Potency was inconclusive: 0.291 µM [activator, partial curve, poor fit].
With `CC(C)n1c(=O)c(C=Nc2ccc(Br)cc2)c(O)n(Cc2ccco2)c1=O` the Potency was inconclusive: 18.4 µM [activator, partial curve, poor fit].
In the case of `CCOC(=O)C1CCN(Cc2ccc(Cl)nc2)CC1`, the “re-replication activation” value is reported as inactive: -6.07%.
In the case of `COC(=O)C1=C(c2ccc(-c3ccccc3)c(F)c2)C[C@@H]2CC[C@H]1N2C(=O)NC1CCCCC1`, the “re-replication activation” value is reported as inactive: -2.5%.
For `CC1(c2ccccc2)NCCN2C(=O)CSC21` (centres undefined), the “re-replication activation” value was inactive: -1.9%.
In the case of `Fc1ccc(Cn2nnnc2C(c2ccc(Cl)cc2)N2CC=C(c3ccc(F)cc3)CC2)cc1` (centres undefined), the Potency is reported as inconclusive: 0.517 µM [activator, full curve, poor fit].
With `C[C@H](CO)N1C[C@H](C)[C@@H](CN(C)C(=O)NC2CCCCC2)Oc2c(cccc2N(C)C)C1=O` the Potency was inconclusive: 6.51 µM [activator, single point].
In the case of `O=C1Nc2ccccc2/C1=C/c1nc2ccccc2c(=O)n1-c1ccc(O)cc1`, the Potency is reported as inconclusive: 18.4 µM [activator, single point].
With `CN[C@H]1C[C@H]2O[C@@](C)([C@H]1OC)n1c3ccccc3c3c4c(c5c6ccccc6n2c5c31)C(=O)NC4` the Potency was inconclusive: 4.11 µM [activator, partial curve, poor fit].
For `O=C(CCN1CC2CCC(CC2)C1)c1cccs1`, the Potency was inconclusive: 29.1 µM [activator, single point].
With `CCOc1cc(CNCCc2c[nH]c3ccccc23)cc(Cl)c1OC` the Potency was inconclusive: 25.9 µM [activator, single point].
With `CC(C)CCNC(=O)c1c(N)n(Cc2ccc3c(c2)OCO3)c2nc3ccccc3nc12` the Potency was active: 2.59 µM.
With `Cc1cccc(N2C(=O)NC(=O)/C(=C\C=C\c3ccco3)C2=O)c1` the Potency was inconclusive: 20.6 µM [activator, single point].
For `O=C1CN=C(c2cccs2)c2c(sc3c2CCCC3)N1`, the Potency was active: 20.6 µM.
With `COP(=O)(NC(C)=O)SC` (centres undefined) the Potency was inconclusive: 0.146 µM [activator, single point].
In the case of `NCC(O)c1ccc(O)cc1` (centres undefined), the Potency is reported as inconclusive: 3.66 µM [activator, single point].
For `O=C(CCn1c(=O)oc2ccccc21)N1CCN(c2ccccc2Cl)CC1`, the Potency was inconclusive: 20.6 µM [activator, single point].
For `COC(=O)C1=Nc2ccccc2/C1=C\c1c(O)n(-c2ccc(Br)cc2)c(=O)[nH]c1=O`, the “re-replication activation” value was inactive: -2.54%.
For `Cc1cccc(-n2c(/C=C/c3ccccn3)nc3ccccc3c2=O)c1`, the Potency was inconclusive: 14.6 µM [activator, partial curve, poor fit].
For `O=C(N/N=C/c1c(O)n(Cc2ccccc2)c(=O)[nH]c1=O)c1ccccc1`, the Potency was inconclusive: 29.1 µM [activator, single point].
In the case of `COc1ccc(CC2C(=O)NC(C)C(=O)N(C)C3C(=O)N(C)C(Cc4ccc(O)c(c4)Oc4ccc(cc4)C3O)C(=O)NC(C)C(=O)NC(C)C(=O)N2C)cc1` (centres undefined), the Potency is reported as inconclusive: 0.0651 µM [activator, full curve].
In the case of `FC(F)(F)c1ccccc1N1CC1c1ccncc1` (centres undefined), the “re-replication activation” value is reported as inactive: -1.61%.
For `COC(=O)[C@@]1(C)[C@H]2C(=O)N(Cc3ccccc3)C(=O)[C@H]2[C@H]2CN=C(SCc3ccc(Cl)cc3)N21`, the Potency was inconclusive: 0.651 µM [activator, single point].
For `O=c1c2ccccc2nc(-c2cccs2)n1-c1ccccc1`, the “re-replication activation” value was inactive: -4.45%.
For `CCN(CC)c1ccc2c(cc1=O)[C@@H](NC)CCc1cc(OC)c(OC)c(OC)c1-2`, the Potency was active: 1.03 µM.
For `CN1CCC(O)(c2ccc(F)cc2)C(C(=O)c2ccc(F)cc2)C1` (centres undefined), the Potency was inconclusive: 18.8 µM [activator, partial curve, poor fit].
With `O=C(CCN1CCCCC1)NCC(=O)Nc1ccc(Br)cc1C(=O)c1ccccc1` the Potency was inconclusive: 20.6 µM [activator, partial curve, poor fit].
For `COc1cc(/C=C/c2nc3ccccc3c(=O)n2-c2ccc(O)cc2)ccc1O`, the Potency was inconclusive: 18.4 µM [activator, single point].
For `CC(C)C[C@H]1C(=O)N2CCCC2[C@]2(O)O[C@](NC(=O)[C@@H]3C=C4c5cccc6[nH]cc(c56)CC4N(C)C3)(C(C)C)C(=O)N12` (some centres undefined), the Potency was inconclusive: 25.9 µM [activator, single point].
With `COc1ccc(NC2Oc3cc4c(cc3C(c3cc(OC)c(OC)c(OC)c3)C2C)OCO4)cc1` (centres undefined) the Potency was active: 1.03 µM.
In the case of `O=c1[nH]sc2cc(F)ccc12`, the Potency is reported as inconclusive: 4.11 µM [activator, full curve].
With `CCC1(c2ccccc2)C(=O)NC(=O)NC1=O` the Potency was “inactive and inconclusive: 20.6 µM [activator, single point]”.
In the case of `CC[C@@H](C(=O)[C@@H](C)[C@@H](O)[C@H](C)[C@@H]1O[C@@H]([C@@H](CC)C(=O)O)CC[C@@H]1C)[C@H]1O[C@]2(C=C[C@@H](O)[C@]3(CC[C@@](C)([C@H]4CC[C@](O)(CC)[C@H](C)O4)O3)O2)[C@H](C)C[C@@H]1C`, the Potency is reported as inconclusive: 9.2 µM [activator, single point].
With `CC(C)(C)NC(=O)NC(=O)CN1CC=C(c2ccccc2)CC1` the Potency was inconclusive: 29.1 µM [activator, single point].
In the case of `O=C1NC(=O)N(c2ccc3c(c2)OCO3)C(=O)/C1=C\c1ccc(-c2ccccc2C(=O)O)o1`, the “re-replication activation” value is reported as inactive: -1.19%.
In the case of `COCCCn1c(N)c(C(=O)NCCC(C)C)c2nc3ccccc3nc21`, the Potency is reported as inconclusive: 1.46 µM [activator, partial curve].
With `CC(C)[C@H]1C(=O)N2CCC[C@H]2[C@]2(O)O[C@](NC(=O)[C@@H]3C=C4c5cccc6[nH]cc(c56)C[C@H]4N(C)C3)(C(C)C)C(=O)N12` the Potency was inconclusive: 4.61 µM [activator, single point].
In the case of `CCCCCCC(=O)N/N=C/c1c(O)n(CCc2ccccc2)c(=O)[nH]c1=O`, the Potency is reported as inconclusive: 29.1 µM [activator, partial curve, poor fit].
In the case of `O=C(C1CCCO1)N1CCC2(CC1)OCCO2` (centres undefined), the “re-replication activation” value is reported as inactive: -9.24%.
In the case of `O=C1NC(=O)C(=CN2CCc3ccccc32)C(=O)N1`, the Potency is reported as inconclusive: 9.2 µM [activator, partial curve, poor fit].
With `COc1ccc([C@@H](O)[C@@H](N)c2ccccc2)cc1` the “re-replication activation” value was inactive: -5.95%.
For `c1ccc(CNC2=NCCS2)cc1`, the “re-replication activation” value was inactive: -3.17%.
For `CNc1ccc2nc3ccccc3[n+](C)c2c1`, the Potency was inconclusive: 2.91 µM [activator, partial curve, poor fit].
With `c1ccc(/N=C2\N=C(Nc3ccccn3)c3ccccc32)nc1` the Potency was inconclusive: 0.146 µM [activator, full curve, poor fit].
For `COc1ccc(CN2CCN(C(=O)COc3ccc4ccccc4c3)CC2)c(OC)c1`, the Potency was inconclusive: 29.1 µM [activator, single point].
For `CN(C)CCSC1c2ccccc2CSc2ccccc21` (centres undefined), the Potency was inconclusive: 20.6 µM [activator, single point].
In the case of `O=C1NC(=O)C(=Cc2ccc(-c3ccc(S(=O)(=O)N4CCOCC4)cc3)o2)C(=O)N1`, the “re-replication activation” value is reported as inactive: -5.17%.
For `COP(=O)(OC)OC=C(Cl)Cl`, the Potency was active: 13.3 µM.
For `CC12CN3CCN(C1)CC(C)(C3)C2=NO`, the Potency was inconclusive: 18.4 µM [activator, single point].
With `Cc1cc(C)c(N)cc1C` the Potency was inconclusive: 25.9 µM [activator, single point].
For `O=C(CNC(=O)c1ccccc1)Nc1ccc(Br)cc1C(=O)c1ccccc1`, the “re-replication activation” value was inactive: 18.7%.
With `CCN(CC)C(=O)Oc1ccc(OC(=O)N(CC)CC)cc1` the Potency was inconclusive: 8.2 µM [activator, single point].
In the case of `COc1ccc(/C=C2/C(=O)N(c3ccccc3)N=C2C)cc1`, the Potency is reported as inconclusive: 29.1 µM [activator, single point].
For `Cc1ccccc1-n1c(CNc2ccccc2)nc2ccccc2c1=O`, the Potency was inconclusive: 5.8 µM [activator, partial curve, poor fit].
In the case of `CC(=O)C1C(N2CC2)CC2C3CCC4=CC(=O)CCC4(C)C3CCC21C` (centres undefined), the Potency is reported as inconclusive: 18.4 µM [activator, single point].
